Values from PubChem BioAssay AID1259405 (NCATS, 2018)

- Test: 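Silenced genes that increase secreted GFP made by CHO cells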 (primary screen)
- System: Chinese hamster CHO-K1 ovary cells with stable secreted eGFP expression
- Reagent: single siRNA against mouse genes, 0.8 pmol siRNA per well (2 µl of 400 nM stock)
- Time to read-out: 3 days
- Detection: 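Percent of the per-plate non-targeting control median for intracellular GFP per well by laser scanning cytometry and for cell viability by ATP luminescence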
- Reading the numbers: GFP, % of control: higher = more GFP per well, higher productivity; viability (ATP), % of control: higher = more viable cells (more ATP)
- Call rule: 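a knock-down is called active if GFP reaches 120% or more of non-targeting control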
The deposit covers about 50,000 reagents; shown is a random part of them. About 4,000 of all reagents (8%) were called active. 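Mouse siRNA library applied to hamster cells; one well for each siRNA.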 A number with no mark means an inactive call. The numbers tell different reagents against one gene apart.

Slc6a20b #1 → GFP, % of control: 61.3; viability (ATP), % of control: 41.9
Slc6a20b #2 → GFP, % of control: 99.7; viability (ATP), % of control: 86.3
Slc6a20b #3 → GFP, % of control: 74.6; viability (ATP), % of control: 76.6
Tubgcp5 (tubulin, gamma complex component 5) #1 → GFP, % of control: 38.1; viability (ATP), % of control: 50.7
Tubgcp5 (tubulin, gamma complex component 5) #2 → GFP, % of control: 73.5; viability (ATP), % of control: 64.1
Tubgcp5 (tubulin, gamma complex component 5) #3 → GFP, % of control: 55.8; viability (ATP), % of control: 60.7
Atrip (ATR interacting protein) #1 → GFP, % of control: 78; viability (ATP), % of control: 52.3
Atrip (ATR interacting protein) #2 → GFP, % of control: 106; viability (ATP), % of control: 101
Atrip (ATR interacting protein) #3 → GFP, % of control: 118; viability (ATP), % of control: 144
4930470P17Rik (RIKEN cDNA 4930470P17 gene) #1 → GFP, % of control: 96.8; viability (ATP), % of control: 80
4930470P17Rik (RIKEN cDNA 4930470P17 gene) #2 → GFP, % of control: 58.6; viability (ATP), % of control: 70.5
4930470P17Rik (RIKEN cDNA 4930470P17 gene) #3 → GFP, % of control: 83.1; viability (ATP), % of control: 93
Bpnt2 (3'(2'), 5'-bisphosphate nucleotidase 2) #1 → GFP, % of control: 89; viability (ATP), % of control: 93.7
Bpnt2 (3'(2'), 5'-bisphosphate nucleotidase 2) #2 → GFP, % of control: 78.5; viability (ATP), % of control: 90
Bpnt2 (3'(2'), 5'-bisphosphate nucleotidase 2) #3 → GFP, % of control: 67.9; viability (ATP), % of control: 89.8
Ptk2b (PTK2 protein tyrosine kinase 2 beta) #1 → GFP, % of control: 87.6; viability (ATP), % of control: 66.5
Ptk2b (PTK2 protein tyrosine kinase 2 beta) #2 → GFP, % of control: 86.7; viability (ATP), % of control: 79.7
Ptk2b (PTK2 protein tyrosine kinase 2 beta) #3 → GFP, % of control: 63.6; viability (ATP), % of control: 86.9
Ift54 (intraflagellar transport 54) #1 → GFP, % of control: 99.3; viability (ATP), % of control: 75.9
Ift54 (intraflagellar transport 54) #2 → GFP, % of control: 65.4; viability (ATP), % of control: 68.3
Ift54 (intraflagellar transport 54) #3 → GFP, % of control: 92.6; viability (ATP), % of control: 64.5
Tgfb1 (transforming growth factor, beta 1) #1 → GFP, % of control: 79.5; viability (ATP), % of control: 57.3
Tgfb1 (transforming growth factor, beta 1) #2 → GFP, % of control: 90.4; viability (ATP), % of control: 70.3
Tgfb1 (transforming growth factor, beta 1) #3 → GFP, % of control: 71.7; viability (ATP), % of control: 94.5
Rpl3l (ribosomal protein L3-like) #1 → GFP, % of control: 33.4; viability (ATP), % of control: 45.9
Rpl3l (ribosomal protein L3-like) #2 → GFP, % of control: 64.2; viability (ATP), % of control: 75.6
Rpl3l (ribosomal protein L3-like) #3 → GFP, % of control: 44.3; viability (ATP), % of control: 57.2
Zfp612 (zinc finger protein 612) #1 → GFP, % of control: 122 (active); viability (ATP), % of control: 119
Zfp612 (zinc finger protein 612) #2 → GFP, % of control: 26.9; viability (ATP), % of control: 24.6
Fbxw26 (F-box and WD-40 domain protein 26) #1 → GFP, % of control: 88.6; viability (ATP), % of control: 94.7
Fbxw26 (F-box and WD-40 domain protein 26) #2 → GFP, % of control: 70.8; viability (ATP), % of control: 64.7
Fbxw26 (F-box and WD-40 domain protein 26) #3 → GFP, % of control: 76; viability (ATP), % of control: 44.7
Fn3krp (fructosamine 3 kinase related protein) #1 → GFP, % of control: 80.1; viability (ATP), % of control: 102
Fn3krp (fructosamine 3 kinase related protein) #2 → GFP, % of control: 56.6; viability (ATP), % of control: 61.4
Poglut3 (protein O-glucosyltransferase 3) #1 → GFP, % of control: 48.9; viability (ATP), % of control: 34.8
Poglut3 (protein O-glucosyltransferase 3) #2 → GFP, % of control: 30.1; viability (ATP), % of control: 26.7
Poglut3 (protein O-glucosyltransferase 3) #3 → GFP, % of control: 113; viability (ATP), % of control: 101
Btk (Bruton agammaglobulinemia tyrosine kinase) → GFP, % of control: 38.1; viability (ATP), % of control: 54.6
Herpud2 (HERPUD family member 2) #1 → GFP, % of control: 124 (active); viability (ATP), % of control: 55.2
Herpud2 (HERPUD family member 2) #2 → GFP, % of control: 120; viability (ATP), % of control: 94.8
Herpud2 (HERPUD family member 2) #3 → GFP, % of control: 88; viability (ATP), % of control: 119

Part of the list above, reformatted.
Slc6a20b #1
- GFP, % of control: 61.3
- viability (ATP), % of control: 41.9

Slc6a20b #2
- GFP, % of control: 99.7
- viability (ATP), % of control: 86.3

Slc6a20b #3
- GFP, % of control: 74.6
- viability (ATP), % of control: 76.6

Tubgcp5 (tubulin, gamma complex component 5) #1
- GFP, % of control: 38.1
- viability (ATP), % of control: 50.7

Tubgcp5 (tubulin, gamma complex component 5) #2
- GFP, % of control: 73.5
- viability (ATP), % of control: 64.1

Tubgcp5 (tubulin, gamma complex component 5) #3
- GFP, % of control: 55.8
- viability (ATP), % of control: 60.7

Atrip (ATR interacting protein) #1
- GFP, % of control: 78
- viability (ATP), % of control: 52.3
